# Measured values from publication PMC2873443.
# Protein sequences, listed by entry. Tags and fused reporters are not part of them.
# UniProt Q04206, whole entry: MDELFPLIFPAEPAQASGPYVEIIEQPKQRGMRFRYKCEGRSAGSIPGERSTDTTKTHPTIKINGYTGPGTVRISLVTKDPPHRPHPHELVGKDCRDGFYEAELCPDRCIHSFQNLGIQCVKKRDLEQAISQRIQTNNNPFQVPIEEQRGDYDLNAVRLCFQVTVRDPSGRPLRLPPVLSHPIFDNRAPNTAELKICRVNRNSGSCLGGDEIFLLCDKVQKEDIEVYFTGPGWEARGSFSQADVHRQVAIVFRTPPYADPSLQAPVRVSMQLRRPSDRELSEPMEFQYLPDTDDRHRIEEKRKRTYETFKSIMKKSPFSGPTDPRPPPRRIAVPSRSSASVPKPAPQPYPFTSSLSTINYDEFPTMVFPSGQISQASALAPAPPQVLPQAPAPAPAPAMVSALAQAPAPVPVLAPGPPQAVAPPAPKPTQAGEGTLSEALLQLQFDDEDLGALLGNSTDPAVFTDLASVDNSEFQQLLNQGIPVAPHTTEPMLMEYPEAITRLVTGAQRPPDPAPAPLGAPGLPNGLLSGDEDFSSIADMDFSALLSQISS
# How the values were obtained:
# NF-kB p50 homodimer = target: T1, NF-kB p50 homodimer (UniProt P19838); assay: EMSA supershift; details: nuclear extract, basal and PMA-induced; EMSA: nuclear extract incubated 25 min with 32P probe; 6% PAGE, 0.5x TBE pH 8; temperature and salt not stated; protein in an extract; label: 32P (Klenow, [alpha-32P]-dCTP)
# T1 sequence (looked up, limits assumed): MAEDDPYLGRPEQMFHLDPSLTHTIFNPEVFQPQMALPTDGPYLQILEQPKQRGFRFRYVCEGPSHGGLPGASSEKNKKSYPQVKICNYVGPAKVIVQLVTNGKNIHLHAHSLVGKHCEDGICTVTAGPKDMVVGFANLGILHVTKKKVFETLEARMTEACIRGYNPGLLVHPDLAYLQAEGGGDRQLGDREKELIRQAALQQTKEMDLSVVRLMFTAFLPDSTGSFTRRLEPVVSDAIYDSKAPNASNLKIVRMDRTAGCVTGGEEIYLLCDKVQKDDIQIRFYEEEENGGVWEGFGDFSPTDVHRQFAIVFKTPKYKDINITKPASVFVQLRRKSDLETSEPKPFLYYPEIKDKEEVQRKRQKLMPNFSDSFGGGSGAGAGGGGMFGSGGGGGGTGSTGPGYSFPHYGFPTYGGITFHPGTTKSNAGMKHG
# [1] = target: NF-kB p65 (RelA) homodimer (UniProt Q04206); assay: EMSA supershift; details: nuclear extract, PMA 0.1 ug/ml 30 min, stronger in K562 than K562/Adr; EMSA: nuclear extract incubated 25 min with 32P probe; 6% PAGE, 0.5x TBE pH 8; temperature and salt not stated; protein in an extract; label: 32P (Klenow, [alpha-32P]-dCTP)
sequence,measurement,setting,value
AGCTATGTGGGTTTTCCCATGAGC (double strand) [IL6 promoter NF-kB oligonucleotide],binding result,NF-kB p50 homodimer,binds
same,binding result,[1],binds

# For at least one entry, the source does not settle the construct or the ends of the probe. At least one result comes from cells or an extract, where the contact may be indirect. For some assays here: Tags and fusion partners may be left off the protein sequences shown.
